PubChem BioAssay AID1259272, Sanger Institute | 2017

Test: 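Kinome-wide siRNA search for genes whose silencing boosts targeted drug effects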 (primary screen)
Cell system: SW1116 human colorectal cancer cells
Reagent: siRNA pool against human genes
Treatment: anchor drugs BYL719 (1 µM), cetuximab (5 µg/ml) or trametinib (10 nM), or DMSO vehicle; exposure length not given
Read-out: 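Cell survival as a fraction of wells given a non-targeting pool, averaged over replicates; robust z-score without drug; synergy score for each of BYL719, cetuximab and trametinib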
Direction: viability z-score, no drug: higher = more cells remaining; strongly negative means essential gene
Active means: 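Called essential if the drug-free knock-down gives a robust viability z-score below -3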
Calls: active = essential (knock-down alone); inactive = no change
Here is a random part of 794 reagents. Of all reagents, 7 (0.88%) got an active call. 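Essential calls reflect knock-down without drug only, not synergy with drugs; drug exposure length not given.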 Not all columns of the deposit are shown. No sequences are given here. Not given: the amount of reagent, the time to read-out.

gene | viability z-score, no drug | outcome
CERK | 0.842 | inactive
KHK | 0.842 | inactive
DNMT3A | 0.842 | inactive
PIK3R1 | 0.842 | inactive
AURKA | -2.13 | inactive
MYLK4 | -1.44 | inactive
CSNK1D | 0.784 | inactive
PBK | 0.0849 | inactive
CHEK2 | 0.689 | inactive
STK17A | -2.65 | inactive
NUCKS1 | 0.842 | inactive
CAMK2D | 0.842 | inactive
DTYMK | 0.842 | inactive
MAPK4 | -1.53 | inactive
PRKCZ | -0.711 | inactive
MOK | 0.842 | inactive
PTPRU | -0.445 | inactive
DGKI | 0.842 | inactive
CDKL2 | -0.474 | inactive
CHEK1 | -2.32 | inactive

Part of the list above, set out differently:
gene,"viability z-score, no drug",outcome
CHEK2,0.689,inactive
STK17A,-2.65,inactive
NUCKS1,0.842,inactive
